Values quoted from earlier work, collected in patent US20250332159A1, “REACTIVE OXYGEN SPECIES MODULATION THROUGH BINDING OF LIGANDS AT THE NQ-BINDING SITE OF THE RESPIRATORY COMPLEX III” (University of Health Sciences & Pharmacy in St. Louis, priority 2024, published 2025).

System: MCF7 cells
Settings: read-out: IC50 of positive controls; MCF7, literature references given (Seeger et al., 2004; Fang et al., 2014); cited from earlier work

Compound: CC/C(=C(\c1ccccc1)c1ccc(OCCN(C)C)cc1)c1ccccc1 [tamoxifen]
- IC50: ~22.1 µM
